# The other results are listed elsewhere or left out.
# B1: PX14343F-bfa-562-20-562 (Bacteroides fragilis) (protein)
# chain: CDDFLDSFPQDTVTNENFWKSKEDADKVLVDIYASLLPKDAIFFDEAMSDNAYLVWDWWGGAQQVANGSYTTSGEIPTNRWNGSYEVIRKCWFLLEGIEKIEDISEQDKNKIIGETYFMLAYNYYVLTSYFGDVPLVTKTLAIPESKQLVRTPKAEVVDYAINKLKEAAVMLEGLSQEKGRVTADACRFLIARMYLYNGDYSNVLETVKLLEGKYQLYREGDTPYEDLFSGVAENSCEVILSVVCDKRVGEIYTSHGGNGIMLLKGITGEDPYRGVTPSGSLVDAYPMADGRLIHEAGSSYDPKKPYEGRDPRFYQSIVYPTGQIKYLDVETGTVKERLYDPEDPTTVPEHQYNYSQPSATGYMWNKYIDYSVYAMNSVWDCTNDIIVFRYADVLLMKAEALLQTKGESAKEEVCNLIDQLRDRCSCGRVHRENYNSKDELMELLKNERRIELANEGLRYMDLIRWKDAEKNTIVTGVGLTGQMYGAYMRKDGVGKDDKTVDVDNTPRRYIETRYFNASKGYLFPIPQKERDLNPNLTQNPNW
# Legend:
# Experiment in all cases: glycan array binding signal (z-score within array); higher = stronger binding
# Details in all cases: glycan notation: IUPAC condensed, linker removed
# [1] = target: GlcNAc(b1-3)Gal(b1-4)GlcNAc(b1-3)Gal(b1-4)GlcNAc(b1-3)GalNAc
# Method in brief: (§1)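 Glycan array data were curated from 3228 arrays in the Consortium for Functional Glycomics database and kept only where the protein sequence was available. Glycan names were converted to IUPAC-condensed notation, and columns mapping to the same glycan were averaged. The binding signal is a within-array Z-score, averaged across arrays of the same protein sequence at different concentrations or buffers and across linkers. Negative Z-scores can be read as non-binding.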
# [2] = target: GlcNAc(b1-3)Gal(b1-4)GlcNAc(b1-3)GalNAc
# Method in brief: as §1
# [3] = target: GlcNAc(b1-3)Gal(b1-4)GlcNAc(b1-3)[GlcNAc(b1-3)Gal(b1-4)GlcNAc(b1-3)]GalNAc
# Method in brief: as §1
# [4] = target: GlcNAc(b1-3)Gal(b1-4)GlcNAc(b1-6)[Gal(b1-3)]GalNAc
# Method in brief: as §1
# [5] = target: GlcNAc(b1-3)Gal(b1-4)GlcNAc(b1-6)[GlcNAc(b1-3)Gal(b1-3)]GalNAc
# Method in brief: as §1
# [6] = target: GlcNAc(b1-3)Gal(b1-4)GlcNAc(b1-6)[GlcNAc(b1-3)]Gal(b1-4)GlcNAc
# Method in brief: as §1
# GlcNAc(b1-3)GalNAc = target: GlcNAc(b1-3)GalNAc
# Method in brief: as §1
# GlcNAc(b1-3)Man = target: GlcNAc(b1-3)Man
# Method in brief: as §1
# [7] = target: GlcNAc(b1-3)[GlcNAc(b1-4)][GlcNAc(b1-6)]GlcNAc
# Method in brief: as §1
# [8] = target: GlcNAc(b1-3)[GlcNAc(b1-6)]Gal(b1-4)GlcNAc
# Method in brief: as §1
# [9] = target: GlcNAc(b1-3)[GlcNAc(b1-6)]GalNAc
# Method in brief: as §1
# [10] = target: GlcNAc(b1-4)Gal(b1-4)GlcNAc
# Method in brief: as §1
# GlcNAc(b1-4)GlcNAc = target: GlcNAc(b1-4)GlcNAc
# Method in brief: as §1
# [11] = target: GlcNAc(b1-4)GlcNAc(b1-4)GlcNAc
# Method in brief: as §1
# [12] = target: GlcNAc(b1-4)GlcNAc(b1-4)GlcNAc(b1-4)GlcNAc(b1-4)GlcNAc
# Method in brief: as §1
# [13] = target: GlcNAc(b1-4)GlcNAc(b1-4)GlcNAc(b1-4)GlcNAc(b1-4)GlcNAc(b1-4)GlcNAc
# Method in brief: as §1
# [14] = target: GlcNAc(b1-4)[GlcNAc(b1-6)]GalNAc
# Method in brief: as §1
# [15] = target: GlcNAc(b1-6)Gal(b1-4)GlcNAc
# Method in brief: as §1
# GlcNAc(b1-6)GalNAc = target: GlcNAc(b1-6)GalNAc
# Method in brief: as §1
# [16] = target: GlcNAc6S(b1-3)Gal(b1-4)GlcNAc
# Method in brief: as §1
# Kdn(a2-3)Gal(b1-3)GalNAc = target: Kdn(a2-3)Gal(b1-3)GalNAc
# Method in brief: as §1
# Kdn(a2-3)Gal(b1-3)GlcNAc = target: Kdn(a2-3)Gal(b1-3)GlcNAc
# Method in brief: as §1
# Kdn(a2-3)Gal(b1-4)Glc = target: Kdn(a2-3)Gal(b1-4)Glc
# Method in brief: as §1
# Kdn(a2-3)Gal(b1-4)GlcNAc = target: Kdn(a2-3)Gal(b1-4)GlcNAc
# Method in brief: as §1
# [17] = target: Kdn(a2-3)Gal(b1-4)[Fuc(a1-3)]GlcNAc
# Method in brief: as §1
# Kdn(a2-6)Gal(b1-4)GlcNAc = target: Kdn(a2-6)Gal(b1-4)GlcNAc
# Method in brief: as §1
# [18] = target: Man(a1-2)Man(a1-2)Man(a1-3)Man
# Method in brief: as §1
# [19] = target: Man(a1-2)Man(a1-2)Man(a1-6)[Man(a1-3)]Man
# Method in brief: as §1
# Man(a1-2)Man(a1-3)Man = target: Man(a1-2)Man(a1-3)Man
# Method in brief: as §1
# [20] = target: Man(a1-2)Man(a1-3)[Man(a1-2)Man(a1-6)]Man
# Method in brief: as §1
binder,measurement,setting,value
B1,glycan array binding signal (z-score),[1],-0.967
same,glycan array binding signal (z-score),[2],0.486
same,glycan array binding signal (z-score),[3],-0.273
same,glycan array binding signal (z-score),[4],-0.368
same,glycan array binding signal (z-score),[5],-0.237
same,glycan array binding signal (z-score),[6],-0.621
same,glycan array binding signal (z-score),GlcNAc(b1-3)GalNAc,-0.59
same,glycan array binding signal (z-score),GlcNAc(b1-3)Man,0.528
same,glycan array binding signal (z-score),[7],0.065
same,glycan array binding signal (z-score),[8],-0.149
same,glycan array binding signal (z-score),[9],-0.401
same,glycan array binding signal (z-score),[10],-0.306
same,glycan array binding signal (z-score),GlcNAc(b1-4)GlcNAc,-0.708
same,glycan array binding signal (z-score),[11],0.054
same,glycan array binding signal (z-score),[12],-0.37
same,glycan array binding signal (z-score),[13],-0.538
same,glycan array binding signal (z-score),[14],0.005
same,glycan array binding signal (z-score),[15],-0.277
same,glycan array binding signal (z-score),GlcNAc(b1-6)GalNAc,-0.589
same,glycan array binding signal (z-score),[16],0.136
same,glycan array binding signal (z-score),Kdn(a2-3)Gal(b1-3)GalNAc,0.066
same,glycan array binding signal (z-score),Kdn(a2-3)Gal(b1-3)GlcNAc,0.344
same,glycan array binding signal (z-score),Kdn(a2-3)Gal(b1-4)Glc,-0.016
same,glycan array binding signal (z-score),Kdn(a2-3)Gal(b1-4)GlcNAc,0.631
same,glycan array binding signal (z-score),[17],-0.468
same,glycan array binding signal (z-score),Kdn(a2-6)Gal(b1-4)GlcNAc,1.1
same,glycan array binding signal (z-score),[18],-0.59
same,glycan array binding signal (z-score),[19],0.148
same,glycan array binding signal (z-score),Man(a1-2)Man(a1-3)Man,-0.87
same,glycan array binding signal (z-score),[20],-0.728

# Source: the supplement of paper PMC8728848
